Test results from paper PMC6019040.
For at least one entry, the source does not settle the construct or the ends of the probe.

system: GST-CsMYB6 (Cucumis sativus); experiment: EMSA; settings: 3 ug protein, 25 pM probe, 50-fold unlabeled competitor also tested; LightShift Chemiluminescent EMSA kit (Thermo) per manufacturer; 3 ug GST-CsMYB6; pH and temperature not stated; recombinant protein; protein details: N-terminal GST; label: biotin on both strands (printed as 5' biotin)

Binding result, binds:
CCAACCCAACAAGTCAACCAACAAACTTAC (double strand) [CsTRY promoter MBS probe 1 (Biotin1)]
CCCTGTAAGTTGTCAACTACAAGTCTACCA (double strand) [CsTRY promoter MBS probe 2 (Biotin2)]
CTAATTAGTTGTCAACTCATGATCATTGAA (double strand) [CsTRY promoter MBS probe 3 (Biotin3)]
